Earlier results, collected in US20070248700A1, “Extractions and Methods Comprising Elder Species” (priority 2006, published 2007).
For at least one compound, name, drawing or mass did not settle the structure.

Tested on: colon cancer cell growth
Conditions: colon cancer cells in vitro

In the case of `Oc1cc(O)c2cc(O)c(-c3ccc(O)c(O)c3)[o+]c2c1` [Cyanidin], the “concentration effective in inhibiting cell growth” value is listed as 2 µg/mL.
